Assay results: PMC5324091
Positions count from the first letter of the chain named. Names and notes keep the numbering of the source. No constants are given. Whether binding was seen depends on the method and setting. In cells and extracts the contact can be indirect. Some results given as binding are weak or reduced against the parent protein; the word gives no strength. Tags and fused reporters may be left off the sequences shown.

Chains of the proteins cited; added tags and fusions are not shown.
UniProt Q00987: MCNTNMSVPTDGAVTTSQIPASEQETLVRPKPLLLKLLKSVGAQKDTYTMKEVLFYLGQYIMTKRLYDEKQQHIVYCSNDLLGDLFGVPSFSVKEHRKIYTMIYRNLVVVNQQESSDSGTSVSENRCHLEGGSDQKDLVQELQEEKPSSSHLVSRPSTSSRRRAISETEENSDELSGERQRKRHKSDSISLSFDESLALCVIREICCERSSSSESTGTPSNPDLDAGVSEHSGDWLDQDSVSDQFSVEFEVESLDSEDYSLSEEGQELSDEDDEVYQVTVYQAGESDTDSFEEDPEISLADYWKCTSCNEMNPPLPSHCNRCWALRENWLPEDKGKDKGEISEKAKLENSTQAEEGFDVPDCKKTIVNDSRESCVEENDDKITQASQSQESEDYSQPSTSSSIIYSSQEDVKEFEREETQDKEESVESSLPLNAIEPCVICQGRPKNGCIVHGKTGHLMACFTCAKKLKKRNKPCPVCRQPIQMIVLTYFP

B1: Flag-tagged wild-type USP48 (ubiquitin-specific peptidase 48) (enzyme, UniProt Q86UV5 1-1035)
chain: MAPRLQLEKAAWRWAETVRPEEVSQEHIETAYRIWLEPCIRGVCRRNCKGNPNCLVGIGEHIWLGEIDENSFHNIDDPNCERRKKNSFVGLTNLGATCYVNTFLQVWFLNLELRQALYLCPSTCSDYMLGDGIQEEKDYEPQTICEHLQYLFALLQNSNRRYIDPSGFVKALGLDTGQQQDAQEFSKLFMSLLEDTLSKQKNPDVRNIVQQQFCGEYAYVTVCNQCGRESKLLSKFYELELNIQGHKQLTDCISEFLKEEKLEGDNRYFCENCQSKQNATRKIRLLSLPCTLNLQLMRFVFDRQTGHKKKLNTYIGFSEILDMEPYVEHKGGSYVYELSAVLIHRGVSAYSGHYIAHVKDPQSGEWYKFNDEDIEKMEGKKLQLGIEEDLAEPSKSQTRKPKCGKGTHCSRNAYMLVYRLQTQEKPNTTVQVPAFLQELVDRDNSKFEEWCIEMAEMRKQSVDKGKAKHEEVKELYQRLPAGAEPYEFVSLEWLQKWLDESTPTKPIDNHACLCSHDKLHPDKISIMKRISEYAADIFYSRYGGGPRLTVKALCKECVVERCRILRLKNQLNEDYKTVNNLLKAAVKGSDGFWVGKSSLRSWRQLALEQLDEQDGDAEQSNGKMNGSTLNKDESKEERKEEEELNFNEDILCPHGELCISENERRLVSKEAWSKLQQYFPKAPEFPSYKECCSQCKILEREGEENEALHKMIANEQKTSLPNLFQDKNRPCLSNWPEDTDVLYIVSQFFVEEWRKFVRKPTRCSPVSSVGNSALLCPHGGLMFTFASMTKEDSKLIALIWPSEWQMIQKLFVVDHVIKITRIEVGDVNPSETQYISEPKLCPECREGLLCQQQRDLREYTQATIYVHKVVDNKKVMKDSAPELNVSSSETEEDKEEAKPDGEKDPDFNQSNGGTKRQKISHQNYIAYQKQVIRRSMRHRKVRGEKALLVSANQTLKELKIQIMHAFSVAPFDQNLSIDGKILSDDCATLGTLGVIPESVILLKADEPIADYAAMDDVMQVCMPEEGFKGTGLLGH
B2: Flag-tagged USP48 mutant C98S (enzyme, UniProt Q86UV5 1-1035)
chain: B1 chain with C98S

Target: wild-type human Mdm2 (human) (UniProt Q00987)
Assay: co-IP; Mdm2 and Flag-USP48 (wild type, C98S or S1) overexpressed in HEK293T; MG132 15 uM for 4 h; lysis in 150 mM NaCl, 50 mM Tris-HCl pH 8.0, 1% Triton X-100; immunoprecipitation at 4 °C with anti-Mdm2 Ab1 or anti-Flag M2, protein G-Sepharose; Western blot

| Binder | binding |
| --- | --- |
| B1 | binds |
| B2 | binds |
